According to the supplement of paper PMC12067093, “Discovery and optimisation of a covalent ligand for TRIM25 and its application to targeted protein ubiquitination” (Chemical Science, 2025):
The other results are listed elsewhere or left out.
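Also: competitive profiling in live THP-1 cells: cysteine peptides tagged with an iodoacetamide desthiobiotin (IA-DTB) probe, intensity after compound treatment relative to DMSO-treated cells.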

Amino acid sequences for entries named in this document (tags omitted). A change or cut given only in a name is not applied to a line headed by its entry.
UniProt P49748: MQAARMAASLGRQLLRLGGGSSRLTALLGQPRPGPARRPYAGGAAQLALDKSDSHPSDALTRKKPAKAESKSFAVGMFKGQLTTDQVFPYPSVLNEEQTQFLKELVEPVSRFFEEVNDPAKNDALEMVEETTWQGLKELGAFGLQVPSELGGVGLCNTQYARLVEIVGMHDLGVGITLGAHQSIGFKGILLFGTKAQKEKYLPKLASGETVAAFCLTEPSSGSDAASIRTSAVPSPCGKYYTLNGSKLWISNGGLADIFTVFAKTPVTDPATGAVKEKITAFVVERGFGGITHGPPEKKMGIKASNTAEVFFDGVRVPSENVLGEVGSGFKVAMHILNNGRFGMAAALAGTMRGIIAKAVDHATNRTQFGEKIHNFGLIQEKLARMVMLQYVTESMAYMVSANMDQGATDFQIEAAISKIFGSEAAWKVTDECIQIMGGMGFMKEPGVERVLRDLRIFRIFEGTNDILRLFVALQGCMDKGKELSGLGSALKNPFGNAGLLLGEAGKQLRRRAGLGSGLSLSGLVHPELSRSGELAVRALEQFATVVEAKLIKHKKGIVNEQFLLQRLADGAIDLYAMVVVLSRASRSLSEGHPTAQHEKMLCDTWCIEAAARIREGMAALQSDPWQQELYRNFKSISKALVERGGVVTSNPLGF
UniProt Q8N9L9: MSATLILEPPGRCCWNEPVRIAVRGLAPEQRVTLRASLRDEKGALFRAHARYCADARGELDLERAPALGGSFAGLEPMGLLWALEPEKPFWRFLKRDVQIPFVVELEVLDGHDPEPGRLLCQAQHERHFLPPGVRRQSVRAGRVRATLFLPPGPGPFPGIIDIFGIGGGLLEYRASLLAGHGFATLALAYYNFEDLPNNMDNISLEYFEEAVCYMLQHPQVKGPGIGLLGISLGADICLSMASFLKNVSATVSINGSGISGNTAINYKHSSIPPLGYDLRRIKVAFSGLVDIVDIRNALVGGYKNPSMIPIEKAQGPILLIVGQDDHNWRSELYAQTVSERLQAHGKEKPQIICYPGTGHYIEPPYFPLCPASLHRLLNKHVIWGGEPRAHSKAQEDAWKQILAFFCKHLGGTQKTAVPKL
UniProt P08183, whole entry, looked up: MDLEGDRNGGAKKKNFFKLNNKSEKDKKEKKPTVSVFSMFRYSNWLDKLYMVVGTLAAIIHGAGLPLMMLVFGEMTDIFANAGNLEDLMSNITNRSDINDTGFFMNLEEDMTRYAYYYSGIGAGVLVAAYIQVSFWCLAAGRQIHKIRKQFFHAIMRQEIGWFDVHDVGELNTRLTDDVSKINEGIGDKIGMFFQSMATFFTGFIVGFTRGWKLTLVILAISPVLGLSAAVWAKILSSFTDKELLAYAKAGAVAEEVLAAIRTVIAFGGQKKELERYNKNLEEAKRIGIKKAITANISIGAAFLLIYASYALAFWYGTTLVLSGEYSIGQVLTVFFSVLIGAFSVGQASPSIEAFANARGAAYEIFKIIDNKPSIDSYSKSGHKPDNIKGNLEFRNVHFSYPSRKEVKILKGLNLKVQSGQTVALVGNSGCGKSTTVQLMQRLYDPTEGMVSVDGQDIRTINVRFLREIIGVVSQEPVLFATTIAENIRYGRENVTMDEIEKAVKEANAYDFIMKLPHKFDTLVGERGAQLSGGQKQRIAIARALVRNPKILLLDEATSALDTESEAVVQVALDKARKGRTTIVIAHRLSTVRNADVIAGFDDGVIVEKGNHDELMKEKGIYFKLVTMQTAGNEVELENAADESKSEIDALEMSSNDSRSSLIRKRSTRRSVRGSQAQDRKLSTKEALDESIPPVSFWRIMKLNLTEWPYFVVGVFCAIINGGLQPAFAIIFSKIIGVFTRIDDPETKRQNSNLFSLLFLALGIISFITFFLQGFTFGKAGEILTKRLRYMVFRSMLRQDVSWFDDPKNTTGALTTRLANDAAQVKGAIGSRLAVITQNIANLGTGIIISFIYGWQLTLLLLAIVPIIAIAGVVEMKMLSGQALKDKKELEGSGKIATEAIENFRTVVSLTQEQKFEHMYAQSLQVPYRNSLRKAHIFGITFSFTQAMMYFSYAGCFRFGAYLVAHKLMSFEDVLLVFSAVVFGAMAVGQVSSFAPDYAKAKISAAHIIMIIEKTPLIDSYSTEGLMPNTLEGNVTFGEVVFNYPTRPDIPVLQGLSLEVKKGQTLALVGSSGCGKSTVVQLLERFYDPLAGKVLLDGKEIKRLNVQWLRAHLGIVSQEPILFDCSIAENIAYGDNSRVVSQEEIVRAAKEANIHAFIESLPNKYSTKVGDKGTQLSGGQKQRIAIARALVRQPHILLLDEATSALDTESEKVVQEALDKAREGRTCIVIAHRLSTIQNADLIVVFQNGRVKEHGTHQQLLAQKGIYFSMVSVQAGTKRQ
UniProt P53396: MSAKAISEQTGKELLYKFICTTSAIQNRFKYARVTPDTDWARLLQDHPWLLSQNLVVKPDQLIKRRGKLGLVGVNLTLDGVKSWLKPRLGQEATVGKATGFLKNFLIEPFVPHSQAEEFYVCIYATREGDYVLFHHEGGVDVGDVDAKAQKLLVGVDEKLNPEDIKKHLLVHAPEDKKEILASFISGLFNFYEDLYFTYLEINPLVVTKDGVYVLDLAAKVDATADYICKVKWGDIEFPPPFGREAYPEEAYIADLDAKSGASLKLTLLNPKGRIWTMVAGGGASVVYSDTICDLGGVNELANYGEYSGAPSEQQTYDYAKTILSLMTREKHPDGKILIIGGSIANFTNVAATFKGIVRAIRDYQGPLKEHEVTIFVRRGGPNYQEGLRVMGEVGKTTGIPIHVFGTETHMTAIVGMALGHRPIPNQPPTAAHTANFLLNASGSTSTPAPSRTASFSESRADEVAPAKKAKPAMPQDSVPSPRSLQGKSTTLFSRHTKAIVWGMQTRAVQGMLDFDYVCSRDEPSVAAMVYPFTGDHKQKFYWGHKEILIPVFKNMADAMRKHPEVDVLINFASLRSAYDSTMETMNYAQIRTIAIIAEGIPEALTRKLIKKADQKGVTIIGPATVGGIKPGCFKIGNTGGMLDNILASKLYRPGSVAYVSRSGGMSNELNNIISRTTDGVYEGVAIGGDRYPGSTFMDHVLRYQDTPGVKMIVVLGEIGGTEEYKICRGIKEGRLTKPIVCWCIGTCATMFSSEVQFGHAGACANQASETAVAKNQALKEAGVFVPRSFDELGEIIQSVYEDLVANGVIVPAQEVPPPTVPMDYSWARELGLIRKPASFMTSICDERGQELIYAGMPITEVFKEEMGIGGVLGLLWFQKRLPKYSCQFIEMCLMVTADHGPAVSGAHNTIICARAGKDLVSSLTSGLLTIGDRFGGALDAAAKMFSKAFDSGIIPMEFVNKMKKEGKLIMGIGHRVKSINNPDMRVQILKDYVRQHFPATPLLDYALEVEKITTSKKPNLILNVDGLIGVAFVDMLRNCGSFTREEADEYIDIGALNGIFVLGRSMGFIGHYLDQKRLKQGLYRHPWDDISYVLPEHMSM
UniProt Q9H3P7: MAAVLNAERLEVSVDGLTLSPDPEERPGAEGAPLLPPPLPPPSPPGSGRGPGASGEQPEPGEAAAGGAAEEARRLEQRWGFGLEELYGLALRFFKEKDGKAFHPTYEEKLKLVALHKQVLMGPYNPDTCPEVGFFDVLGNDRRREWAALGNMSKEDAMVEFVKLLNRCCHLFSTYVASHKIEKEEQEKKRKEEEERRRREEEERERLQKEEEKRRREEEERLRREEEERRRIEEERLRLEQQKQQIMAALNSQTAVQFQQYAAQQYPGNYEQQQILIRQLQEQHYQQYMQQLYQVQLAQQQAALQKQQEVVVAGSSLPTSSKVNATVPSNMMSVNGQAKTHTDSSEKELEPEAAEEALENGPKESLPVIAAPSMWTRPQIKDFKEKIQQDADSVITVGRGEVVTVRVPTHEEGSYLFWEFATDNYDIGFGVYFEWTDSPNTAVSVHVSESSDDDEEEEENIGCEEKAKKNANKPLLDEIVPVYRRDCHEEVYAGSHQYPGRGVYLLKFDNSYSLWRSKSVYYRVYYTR
UniProt P33527: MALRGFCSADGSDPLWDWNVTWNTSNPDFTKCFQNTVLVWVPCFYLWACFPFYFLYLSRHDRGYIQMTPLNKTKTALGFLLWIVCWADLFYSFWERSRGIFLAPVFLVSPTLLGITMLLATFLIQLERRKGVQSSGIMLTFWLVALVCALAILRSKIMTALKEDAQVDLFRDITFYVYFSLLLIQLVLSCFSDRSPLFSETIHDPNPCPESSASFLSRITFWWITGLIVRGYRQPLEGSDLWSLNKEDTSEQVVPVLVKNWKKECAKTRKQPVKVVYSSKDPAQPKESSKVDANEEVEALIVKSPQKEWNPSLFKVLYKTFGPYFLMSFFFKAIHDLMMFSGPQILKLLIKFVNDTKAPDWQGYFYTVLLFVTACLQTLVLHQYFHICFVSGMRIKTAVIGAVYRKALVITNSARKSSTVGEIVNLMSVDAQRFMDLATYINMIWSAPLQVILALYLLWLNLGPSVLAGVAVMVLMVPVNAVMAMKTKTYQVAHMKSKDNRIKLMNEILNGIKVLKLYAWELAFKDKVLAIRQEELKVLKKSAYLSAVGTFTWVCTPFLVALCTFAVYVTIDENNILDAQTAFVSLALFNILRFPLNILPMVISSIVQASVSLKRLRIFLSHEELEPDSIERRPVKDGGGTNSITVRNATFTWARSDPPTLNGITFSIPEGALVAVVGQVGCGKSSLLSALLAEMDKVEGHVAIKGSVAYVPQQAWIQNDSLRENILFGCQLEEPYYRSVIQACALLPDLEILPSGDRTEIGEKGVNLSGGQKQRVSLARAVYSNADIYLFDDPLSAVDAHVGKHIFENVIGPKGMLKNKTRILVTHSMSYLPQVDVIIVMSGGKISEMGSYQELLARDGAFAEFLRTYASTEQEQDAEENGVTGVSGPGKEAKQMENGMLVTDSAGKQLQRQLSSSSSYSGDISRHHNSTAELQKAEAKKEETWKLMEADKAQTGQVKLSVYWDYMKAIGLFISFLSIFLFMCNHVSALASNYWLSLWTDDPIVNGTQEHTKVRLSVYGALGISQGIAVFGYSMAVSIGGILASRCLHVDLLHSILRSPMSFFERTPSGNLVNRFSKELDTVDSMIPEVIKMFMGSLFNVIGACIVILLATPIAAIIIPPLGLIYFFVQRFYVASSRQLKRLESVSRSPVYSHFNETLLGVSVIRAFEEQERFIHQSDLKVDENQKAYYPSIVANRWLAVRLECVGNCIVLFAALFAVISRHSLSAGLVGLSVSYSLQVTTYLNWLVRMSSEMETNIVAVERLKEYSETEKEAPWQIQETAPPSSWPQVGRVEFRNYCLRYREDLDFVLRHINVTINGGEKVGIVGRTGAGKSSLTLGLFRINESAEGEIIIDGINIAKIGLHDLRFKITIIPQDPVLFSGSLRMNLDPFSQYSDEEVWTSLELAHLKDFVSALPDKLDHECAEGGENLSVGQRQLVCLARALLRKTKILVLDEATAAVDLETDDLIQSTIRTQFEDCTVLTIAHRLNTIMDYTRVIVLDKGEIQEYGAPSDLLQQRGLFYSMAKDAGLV
UniProt Q5VST6: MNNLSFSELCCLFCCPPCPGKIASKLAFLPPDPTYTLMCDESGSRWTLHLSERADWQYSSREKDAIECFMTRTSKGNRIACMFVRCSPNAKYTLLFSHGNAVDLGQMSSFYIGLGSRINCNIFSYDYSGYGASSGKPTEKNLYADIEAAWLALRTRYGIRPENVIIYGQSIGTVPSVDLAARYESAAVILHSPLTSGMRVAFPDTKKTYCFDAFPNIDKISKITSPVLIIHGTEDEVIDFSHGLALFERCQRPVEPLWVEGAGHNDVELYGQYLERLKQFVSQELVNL
UniProt Q99798: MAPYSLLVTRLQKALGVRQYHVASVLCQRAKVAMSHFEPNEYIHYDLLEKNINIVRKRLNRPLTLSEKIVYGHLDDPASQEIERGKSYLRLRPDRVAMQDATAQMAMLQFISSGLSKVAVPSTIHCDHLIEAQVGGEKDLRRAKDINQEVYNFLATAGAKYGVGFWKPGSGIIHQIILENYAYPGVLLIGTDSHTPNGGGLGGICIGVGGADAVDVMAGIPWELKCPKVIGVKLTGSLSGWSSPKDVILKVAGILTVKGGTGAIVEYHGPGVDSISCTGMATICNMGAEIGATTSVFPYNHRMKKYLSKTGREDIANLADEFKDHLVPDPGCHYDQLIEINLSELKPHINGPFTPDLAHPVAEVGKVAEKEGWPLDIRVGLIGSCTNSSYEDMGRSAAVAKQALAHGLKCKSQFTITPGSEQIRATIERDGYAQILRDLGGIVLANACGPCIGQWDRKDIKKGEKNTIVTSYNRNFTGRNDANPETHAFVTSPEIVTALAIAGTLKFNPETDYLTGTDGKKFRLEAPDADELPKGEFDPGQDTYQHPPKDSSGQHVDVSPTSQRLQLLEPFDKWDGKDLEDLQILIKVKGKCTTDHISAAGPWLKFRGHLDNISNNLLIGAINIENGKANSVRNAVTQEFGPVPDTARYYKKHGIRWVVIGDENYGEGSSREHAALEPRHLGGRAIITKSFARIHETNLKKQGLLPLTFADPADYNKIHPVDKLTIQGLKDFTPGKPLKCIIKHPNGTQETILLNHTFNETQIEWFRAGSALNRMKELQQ

What follows are targets tested with Cc1cc(ccc1-c1ccccc1)C(=O)N1CCCN(CC1)C(=O)CCl [compound 10] (assay: probe-labelled cysteine peptide fold change vs DMSO (competition) (log2 fold change); higher = less target engagement (more negative = stronger competition)). Conditions: 10 µM; THP-1; incubation time: 4 h.
For “ACADVL_P49748_603_MLCDTWCIEAAAR (UniProt P49748)”, the “probe-labelled cysteine peptide fold change” value was -0.105.
In the case of “ABCA2_Q9BZC7_1542_LPSGVGATCVLK (UniProt Q9BZC7)”, the “probe-labelled cysteine peptide fold change” value was -0.226.
In the case of “ABCF3_Q9NUQ8_680_ELWVCEGGGVTR (UniProt Q9NUQ8)”, the “probe-labelled cysteine peptide fold change” value was -0.0969.
For “ACOT4_Q8N9L9_121_LLCQAQHER (UniProt Q8N9L9)”, the “probe-labelled cysteine peptide fold change” value was -0.137.
In the case of “ACADVL_P49748_237_TSAVPSPCGK (UniProt P49748)”, the “probe-labelled cysteine peptide fold change” value was -0.143.
“ABCB1_P08183_1074_KGQTLALVGSSGCGK (UniProt P08183)” was tested, and the “probe-labelled cysteine peptide fold change” value was -0.121.
In the case of “ACLY_P53396_20_FICTTSAIQNR (UniProt P53396)”, the “probe-labelled cysteine peptide fold change” value was -0.016.
“ACBD3_Q9H3P7_487_RDCHEEVYAGSHQYPGR (UniProt Q9H3P7)” was tested, and the “probe-labelled cysteine peptide fold change” value was -0.0714.
“ABCC1_P33527_1479_TQFEDCTVLTIAHR (UniProt P33527)” was tested, and the “probe-labelled cysteine peptide fold change” value was 0.0293.
In the case of “ACACA_Q13085_1009_CVFALR (UniProt Q13085)”, the “probe-labelled cysteine peptide fold change” value was 0.157.
With “ABHD17B_Q5VST6_250_CQRPVEPLWVEGAGHNDVELYGQYLER (UniProt Q5VST6)” the “probe-labelled cysteine peptide fold change” value was 0.198.
With “ACBD3_Q9H3P7_168_CCHLFSTYVASHK (UniProt Q9H3P7)” the “probe-labelled cysteine peptide fold change” value was -0.0129.
With “ACAA1_P09110_177_ARDCLIPMGITSENVAER (UniProt P09110)” the “probe-labelled cysteine peptide fold change” value was -0.114.
For “ABCD3_P28288_477_SGANVLICGPNGCGK (UniProt P28288)”, the “probe-labelled cysteine peptide fold change” value was 0.727.
For “ABR_Q12979_158_EFYDNLCPK (UniProt Q12979)”, the “probe-labelled cysteine peptide fold change” value was -0.0958.
In the case of “ABI1_Q8IZP0_488_KNDDGWYEGVCNR (UniProt Q8IZP0)”, the “probe-labelled cysteine peptide fold change” value was 0.0255.
In the case of “ACO2_Q99798_448+451_DLGGIVLANACGPCIGQWDRK (UniProt Q99798)”, the “probe-labelled cysteine peptide fold change” value was -0.143.
